These results are taken from article PMC7108717, “Dynamics in the murine norovirus capsid revealed by high-resolution cryo-EM” (PLoS Biology, 2020).

By UniProt entry, the sequences of proteins in these tests, tags left out.
UniProt Q80J94: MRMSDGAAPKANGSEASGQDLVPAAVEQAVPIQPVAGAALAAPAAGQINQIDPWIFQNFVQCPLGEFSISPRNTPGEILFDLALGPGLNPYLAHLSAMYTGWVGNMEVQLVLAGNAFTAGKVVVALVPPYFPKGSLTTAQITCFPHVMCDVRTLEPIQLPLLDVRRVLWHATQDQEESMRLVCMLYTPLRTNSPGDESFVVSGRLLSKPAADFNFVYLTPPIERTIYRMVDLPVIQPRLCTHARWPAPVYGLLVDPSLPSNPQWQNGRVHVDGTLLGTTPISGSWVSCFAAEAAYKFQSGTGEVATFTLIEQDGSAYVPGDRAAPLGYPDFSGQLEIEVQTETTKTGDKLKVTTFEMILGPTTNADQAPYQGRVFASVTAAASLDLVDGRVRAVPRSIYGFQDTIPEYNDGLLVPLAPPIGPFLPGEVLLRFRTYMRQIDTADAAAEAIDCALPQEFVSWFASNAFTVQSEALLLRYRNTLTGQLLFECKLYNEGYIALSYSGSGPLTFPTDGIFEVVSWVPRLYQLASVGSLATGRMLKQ

Assay [1] has as its target murine norovirus (MNV-1 strain CW1P3) major structural protein VP1, wild type (murine norovirus (MNV-1 strain CW1P3)) (UniProt Q80J94). The assay is described as follows: cryo-EM structure; purified wtMNV virions heated to 61°C (heat-inactivated, hiMNV), icosahedral reconstruction and focussed classification of CC-type P domain dimers; both purified.
The target is the same in assay [2]. The assay is described as follows: cryo-EM structure; purified virions in EM buffer (10 mM HEPES pH 7.6, 200 mM NaCl, 5 mM MgCl2, 1 mM KCl, 1 mM CaCl2), icosahedral reconstruction and focussed classification of P domain dimers; both purified.

These are yes or no findings as the source states them, for the method shown. Some binding calls cover weakened binding; strength is not graded here.

With “murine norovirus (MNV-1 strain CW1P3) major structural protein VP1, wild type (from UniProt Q80J94 1-541)”, the binding entry in assay [1] and in assay [2] was “binds” throughout.
